Laboratory results: publication PMC8014998
These are yes or no findings as the source states them, for the method shown. In cells and extracts the contact can be indirect. Here binding means that the protein was enriched with, or labelled near, the bait; the list need not be complete.

The chains behind the UniProt entries cited, without tags or fusion partners. Residues count along the entry.
UniProt O88696, residues 53-272: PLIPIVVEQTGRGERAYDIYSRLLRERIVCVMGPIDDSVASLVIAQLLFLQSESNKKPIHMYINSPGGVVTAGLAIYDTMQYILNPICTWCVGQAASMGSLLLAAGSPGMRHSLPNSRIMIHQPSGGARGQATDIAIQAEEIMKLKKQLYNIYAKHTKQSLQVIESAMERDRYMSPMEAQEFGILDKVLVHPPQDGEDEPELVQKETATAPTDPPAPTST

Target: CLPP-WT-FLAG (UniProt O88696)
Assay: affinity purification with mass spectrometry; substrate trapping: CLPP-WT-FLAG, CLPP-TRAP-FLAG or empty vector (NEG) expressed in three Clpp-/- MEF lines; whole cell lysates in IP buffer with anti-FLAG magnetic beads over night at 4 °C; 4 washes; eluates by label-free LC-MS; multi-sample ANOVA, FDR <0.05

B1: C1QBP/P32 (protein, UniProt O35658 71-278)
chain: LHTEGDKAFVEFLTDEIKEEKKIQKHKSLPKMSGDWELEVNGTEAKLLRKVAGEKITVTFNINNSIPPTFDGEEEPSQGQKAEEQEPERTSTPNFVVEVTKTDGKKTLVLDCHYPEDEIGHEDEAESDIFSIKEVSFQATGDSEWRDTNYTLNTDSLDWALYDHLMDFLADRGVDNTFADELVELSTALEHQEYITFLEDLKSFVKNQ
- binding: binds
